This assay in a line: qHTS Assay for Lipid Storage Modulators in Drosophila S3 Cells.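 For cell number change: cells counted by Cell Tracker Red CMTPX staining in the red channel.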 To be noted: BODIPY lipid droplet fluorescence, 18-24 h; for cell number change: measured here: cell count max response, cells fed with added oleic acid. The procedure, abridged: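 Drosophila S3 cells loaded with oleic acid (400 uM, as added) and compounds at several concentrations; lipid droplets imaged by 488-nm laser-scanning cytometry, 500–530 nm intensity and object ratio to cell channel. Percent activity normalized to 20 uM Triacsin C.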

Setting [1] is: measured here: lipid fluorescence (Fed channel) AC50, cells fed with added oleic acid.
[2] abbreviates: measured here: cell number channel AC50, cells fed with added oleic acid.

From PubChem BioAssay AID2685 (National Center for Advancing Translational Sciences (NCATS), 2010) come the findings set out here.

Molecules are shown by their SMILES. This is one part of the list. Shown are side measurements of this screen, not its main read-out; they come without a call. Compounds called inactive in the main read-out are mostly missing here. Words in brackets tell the shape of the fitted curve; partial curves, single points and poor fits give uncertain potencies.

In general, AC50 refers to the concentration giving half of the maximal activity seen. Read a low AC50 as activity at low concentration.

With `COc1ccc(-n2nc([N+](=O)[O-])c(=NCCc3ccc(OC)c(OC)c3)n2O)cc1`, the AC50 under setting [1] is 0.82 µM [falling, full curve, poor fit].
As for `N/C(Cc1ccc([N+](=O)[O-])cc1)=N\OC(=O)COc1cccc2ccccc12`, the cell number change was -2.97%. Besides, the concentration at half-maximal activity (AC50) under setting [1] was 32.6 µM [falling, partial curve, poor fit].
As to `Cc1ccc(C(=O)O/N=C2\CCCc3ccccc32)cc1`, the cell number change was -39.9%. The concentration at half-maximal activity (AC50) under setting [2] is 4.11 µM [falling, partial curve, poor fit]. Besides, under setting [1], the AC50 is 29.1 µM [falling, single point].
As for `CCCOC(=O)c1ccc(Oc2cn[nH]c2-c2ccc(OC)cc2O)cc1`, the cell number change is -81.9%. Further, the concentration at half-maximal activity (AC50) under setting [2] is 23.1 µM [falling, partial curve]. The AC50 under setting [1] was 1.16 µM [falling, full curve].
`COc1ccc2sc(N(CCCN(C)C)C(=O)c3ccc(S(=O)(=O)N4CCCc5ccccc54)cc3)nc2c1`: the cell number change is -82.8%. Moreover, the concentration at half-maximal activity (AC50) under setting [2] is 20.6 µM [falling, partial curve].
As to `COc1ccc(NC(=O)CSc2nnc(Cc3ccc(C)cc3)c(=O)n2N)cc1OC`, the cell number change is -14.2%.
As to `COc1cc(NC(=O)CN2C(=O)c3ccccc3S2(=O)=O)cc(OC)c1`, the cell number change was determined as 1.01%. For the same compound, the half-maximal activity concentration (AC50) under setting [1] was 0.651 µM [rising, full curve, poor fit].
Consider `CC(=O)Nc1ccc(NC(=O)COC(=O)c2c(C)nn(-c3ccccc3)c2C)cc1`, for which the cell number change was 11.3%. In addition, the half-maximal activity concentration (AC50) under setting [2] was 0.116 µM [rising, full curve, poor fit]. Besides, the concentration at half-maximal activity (AC50) under setting [1] was 0.13 µM [rising, full curve, poor fit].
Take `CCCOc1ccc(N2CC(C(=O)Nc3ccccn3)CC2=O)cc1` (configuration not stated): the cell number change is -4.02%.
Regarding `COC(=O)C1Cc2c([nH]c3ccccc23)C(C)N1` (configuration not stated), the cell number change was 108%. Moreover, the half-maximal activity concentration (AC50) under setting [2] is 20.6 µM [rising, single point]. The AC50 under setting [1] is 29.1 µM [rising, single point].
Take `C#CCOCCOCCOCCNc1nc(N2CCN(C(=O)[C@H]([C@@H](C)CC)n3cc([C@@H](N)CC(C)C)nn3)CC2)nc(N2CCN(C(=O)[C@H](Cc3cc4ccccc4[nH]3)n3cc([C@@H](N)C(C)CC)nn3)CC2)n1` (some centres not stated): the cell number change was -23.8%. In addition, the AC50 under setting [2] was 3.66 µM [falling, full curve, poor fit]. Besides, under setting [1], the AC50 is 6.51 µM [falling, single point].
As to `O=C1c2cccc3cc(Br)cc(c23)C(=O)N1Nc1ccc(Br)cc1`, the cell number change came to 1.93%. Further, the AC50 under setting [1] was 2.91 µM [rising, partial curve, poor fit].
In the case of `CCC1CCCCN1C(=O)COc1ccc(S(=O)(=O)N2CCOCC2)cc1Cl` (configuration not stated), the cell number change is -21.8%. Moreover, the half-maximal activity concentration (AC50) under setting [1] was 7.31 µM [falling, partial curve, poor fit].
In the case of `Cc1ccc(/C=C(\NC(=O)c2ccccc2)C(=O)N2CCCC2C(=O)O)cc1` (configuration not stated), the cell number change was -36.5%. Moreover, the AC50 under setting [2] was 0.651 µM [falling, full curve, poor fit]. Besides, the AC50 under setting [1] is 0.82 µM [falling, full curve].
`CCCCOc1ccc(Br)cc1/C(C)=N/NC1=NCCN1`: the cell number change was -66.4%. Further, the AC50 under setting [2] is 13 µM [falling, partial curve]. For the same compound, the half-maximal activity concentration (AC50) under setting [1] is 7.31 µM [falling, partial curve].
For `CCn1nc(C(=O)NNC(=O)C2CSC3(C)CCC(=O)N23)c2ccccc2c1=O` (configuration not stated), the cell number change was -49.5%. For the same compound, the half-maximal activity concentration (AC50) under setting [2] was 29.1 µM [falling, single point]. Further, under setting [1], the AC50 is 29.1 µM [falling, single point].
In the case of `CCS(=O)(=O)Nc1cccc(-c2ccc3nnc(-c4cccnc4)n3n2)c1`, the half-maximal activity concentration (AC50) under setting [1] was 5.17 µM [falling, full curve].
Consider `O=C(Nc1nccs1)C1CC(=O)N(c2ccc(Cl)cc2)C1` (configuration not stated), for which the cell number change is -0.452%. In addition, the AC50 under setting [1] is 0.13 µM [falling, full curve, poor fit].
`Cc1ccccc1C(=O)NC(=S)Nc1ccc(Cc2ccncc2)cc1`: the cell number change was 19.6%. Under setting [1], the AC50 is 9.2 µM [rising, partial curve].
For `O=C(Nc1ccc(Cl)cc1)c1cc2c(cc1O)[nH]c1ccccc12`, the cell number change is -54.6%. Moreover, the AC50 under setting [2] was 8.2 µM [falling, partial curve]. For the same compound, under setting [1], the concentration at half-maximal activity (AC50) is 13 µM [falling, partial curve].
`OC(COCc1ccccc1)CN1CCN(Cc2ccc3c(c2)OCO3)CC1` (configuration not stated): the cell number change was -52.9%. Besides, under setting [1], the AC50 was 0.0461 µM [falling, partial curve].
`Cc1ccc(S(=O)(=O)N2CC(=O)NC(=O)C2)cc1`: the cell number change turned out to be 0.435%. Moreover, under setting [1], the concentration at half-maximal activity (AC50) was 6.51 µM [falling, partial curve, poor fit].
Take `COc1ccc(/C=N/NC(=S)Nc2ccccc2)cc1`: the cell number change is -13.3%. In addition, under setting [1], the AC50 is 29.1 µM [falling, single point].
With `COc1ccccc1Nc1nc2ccccc2[nH]1`, the AC50 under setting [1] is 7.31 µM [rising, partial curve].
As for `CCc1ccc(N2CC(C(=O)Nc3ccc4c(c3)OCO4)CC2=O)cc1` (configuration not stated), the cell number change came to 4.54%. For the same compound, the concentration at half-maximal activity (AC50) under setting [1] is 0.184 µM [rising, full curve, poor fit].
Regarding `CCOC(=O)CSc1nnc(-c2ccc([N+](=O)[O-])cc2)o1`, the cell number change amounted to 24.8%. Moreover, the AC50 under setting [1] was 6.51 µM [rising, single point].
For `S=C(NCc1ccco1)N/N=C/c1cccnc1`, the cell number change is 21.3%. Also, the concentration at half-maximal activity (AC50) under setting [1] is 9.2 µM [rising, partial curve, poor fit].
As for `Cc1ccc(S(=O)(=O)N(C)CC(=O)Nc2ccc3c(c2)OCO3)cc1`, the cell number change came out at 4.44%. Under setting [1], the half-maximal activity concentration (AC50) was 14.6 µM [rising, partial curve].
On to `Clc1ccc(-c2nc(Cc3ccccc3)no2)cc1`, for which the cell number change came out at 56.3%. Moreover, the AC50 under setting [2] was 29.1 µM [rising, single point]. In addition, under setting [1], the half-maximal activity concentration (AC50) is 0.00461 µM [falling, full curve, poor fit].
Take `C/C(CCc1ccccc1)=N\NC(=S)NCCc1ccccc1`: the cell number change is -2.7%. Also, the AC50 under setting [1] is 29.1 µM [falling, single point].
In the case of `CCCC(=O)NC(c1ccc(OC)c(OC)c1)c1c(O)ccc2ccccc12` (configuration not stated), the cell number change was -13.1%. For the same compound, the AC50 under setting [1] is 0.0082 µM [falling, full curve, poor fit].
As for `COc1ccc(CNC(=O)c2cc3c(C)nc4ccccc4c3o2)c(OC)c1`, the cell number change was -54.3%. Further, the AC50 under setting [2] was 20.6 µM [falling, single point]. The AC50 under setting [1] is 0.366 µM [rising, partial curve, poor fit].
Take `Cc1nc(N(C)C)c2sc(=S)n(C)c2n1`: under setting [1], the AC50 was 6.51 µM [rising, single point].
In the case of `CCCCCn1c(=O)c2ccccc2n2c(=S)[nH]nc12`, the cell number change was -25.1%. For the same compound, the AC50 under setting [1] is 29.1 µM [falling, single point].
On to `O=C(Cc1n[nH]c(=O)[nH]c1=O)N/N=C/c1ccccc1`, for which the cell number change was -3.81%. Besides, under setting [1], the AC50 is 0.058 µM [falling, partial curve, poor fit].
Regarding `N#Cc1c(-c2ccccc2)nc(SCc2cccc(C(F)(F)F)c2)[nH]c1=O`, the cell number change is -37.4%. Besides, the AC50 under setting [2] is 20.6 µM [falling, single point]. The half-maximal activity concentration (AC50) under setting [1] is 18.4 µM [falling, single point].
On to `CCNC(=O)C1CC(=O)N(c2ccc(Br)cc2)C1` (configuration not stated), for which the cell number change is -4.69%. For the same compound, under setting [1], the AC50 is 23.1 µM [rising, single point].
Consider `Cc1cc(NC(=O)c2ccccc2)ccc1NC(=O)Cc1ccccc1`, for which the cell number change was 15%. In addition, the AC50 under setting [1] was 29.1 µM [falling, single point].
Take `CC(=O)Nc1c(C(=O)N2CCCCCC2)cnn1-c1ccccc1`: the cell number change was -88.8%. Under setting [2], the half-maximal activity concentration (AC50) is 29.1 µM [falling, single point]. Besides, under setting [1], the AC50 is 3.26 µM [rising, single point].
Turning to `O=S(=O)(Nc1cc(Sc2cccc3cccnc23)c(O)c2ccccc12)c1ccc(F)cc1`, the cell number change was -43.2%. The AC50 under setting [2] is 11.6 µM [falling, partial curve]. Further, the concentration at half-maximal activity (AC50) under setting [1] was 4.61 µM [falling, full curve].
Take `NS(=O)(=O)c1ccc(CCNC(=O)Cc2ccc(Cl)cc2)cc1`: the cell number change was -22%.
Take `COc1ccc(N2CCN(CC(=O)NCc3ccccc3)CC2)cc1`: the cell number change came to 9.59%. Further, under setting [2], the concentration at half-maximal activity (AC50) was 3.66 µM [falling, partial curve, poor fit].
Consider `O=C(NN1CCOCC1)c1cc(-c2cccs2)nc2ccccc12`, for which the cell number change was found to be 30.1%. In addition, the AC50 under setting [2] was 25.9 µM [rising, single point].
Turning to `COc1ccc(Cn2c(=O)[nH]c3cc(C(=O)NCCCN4CCCC4=O)ccc3c2=O)cc1`, the cell number change was found to be 1.35%. For the same compound, under setting [1], the AC50 was 18.4 µM [rising, single point].
As for `C/C(=N/NC(=O)c1ccncc1)c1ccc(NC(=O)c2ccccc2)cc1`, the cell number change came to 19.6%.
As to `Cc1ccccc1CC(=O)N1CCCC1`, the cell number change was -5.56%. Moreover, the half-maximal activity concentration (AC50) under setting [1] was 29.1 µM [rising, single point].
Consider `O=C(c1cc(COc2ccc(F)cc2Cl)on1)N1CC2C[C@@H]3CC1C[C@H](C2)C3`, for which the cell number change is -65.3%. Further, the AC50 under setting [2] is 18.4 µM [falling, single point]. Also, under setting [1], the AC50 was 5.17 µM [falling, single point].
In the case of `COc1c(/C=N/Nc2ccc(C(=O)O)cc2)c(CCN(C)C(C)=O)cc2c1OCO2`, the cell number change was 26.6%. Further, the AC50 under setting [2] was 0.731 µM [rising, full curve, poor fit].
Turning to `COc1ccc(/C=C2\SC(N)=NC2=O)cc1Br`, the cell number change was determined as 5.87%. The AC50 under setting [1] is 29.1 µM [falling, single point].
As for `COc1cccc(NC(=O)CN(C)S(=O)(=O)c2ccc3[nH]c(=O)oc3c2)c1`, the cell number change amounted to 13.9%. Further, the AC50 under setting [1] is 0.13 µM [falling, single point].
In the case of `O=[N+]([O-])c1ccccc1CN1CCN(Cc2ccccn2)CC1`, the cell number change amounted to 2.94%.
Regarding `CCCNC(=O)C1CCN(S(=O)(=O)c2c(C)noc2/C=C\c2ccc(OC)cc2)CC1`, the cell number change came to 46.3%. Further, the concentration at half-maximal activity (AC50) under setting [2] is 5.8 µM [rising, partial curve]. Further, under setting [1], the AC50 is 2.91 µM [rising, partial curve].
For the compound `CC1CCCN(C(=O)CCc2nnc(-c3ccc4c(c3)OCO4)o2)C1` (configuration not stated), the cell number change worked out at 27.7%. In addition, the AC50 under setting [1] was 20.6 µM [rising, partial curve].
Take `CCOC(=O)C1=C(C)N=C(SC)N(C)C1c1ccccc1` (configuration not stated): the cell number change was -18.2%. Also, the half-maximal activity concentration (AC50) under setting [1] is 0.291 µM [falling, full curve].
As to `COc1ccc(NC(=O)CSc2nnc(-c3ccncc3)o2)c(OC)c1`, the cell number change is 2.75%. Besides, the AC50 under setting [1] is 0.0058 µM [rising, full curve, poor fit].
